This assay can be described thus: qHTS Assay for Lipid Storage Modulators in Drosophila S3 Cells.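 On cell number change: cells counted by Cell Tracker Red CMTPX staining in the red channel.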 To be noted: BODIPY lipid droplet fluorescence, 18-24 h; for cell number change: measured here: cell count max response, cells fed with added oleic acid. The procedure, abridged:
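Laser-scanning cytometry quantifies lipid droplet accumulation (500–530 nm total intensity; droplet/cell object ratio) in oleic acid-fed (400 uM added) Drosophila S3 cells treated with a concentration series. 20 uM Triacsin C defined 100% inhibition.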
Background: qHTS replaces the single test concentration by a dilution series.

Where [1] appears, read: measured here: lipid fluorescence (Fed channel) AC50, cells fed with added oleic acid.
[2] abbreviates: measured here: cell number channel AC50, cells fed with added oleic acid.

The other results are listed elsewhere or left out. These are further read-outs of the screen, such as a control signal, another cell line or another target. No call is given for them. The list favours compounds with an active or inconclusive main result. Words in brackets tell the shape of the fitted curve; partial curves, single points and poor fits give uncertain potencies.

`CC(C)Oc1ccc(C(=O)Nc2ccc([N+](=O)[O-])cc2)cc1`: the cell number change came to 2.94%.
`Cc1ccc(S(=O)(=O)Nc2ccc3c(c2)nc(CCN2CCCCC2)n3C)cc1`: the cell number change was 10.2%. Also, the AC50 (commonly the concentration giving half of the maximal activity seen) under setting [1] is 6.51 µM [falling, single point].
Take `COc1ccc(CCNC(=O)CCCC(=O)n2nc(C)c3ccccc32)cc1OC`: the cell number change is -23.2%.
As for `COCCNC(C(=O)Nc1ccc([N+](=O)[O-])cc1Br)c1ccccc1` (configuration not stated), the cell number change was 30.7%. The AC50 under setting [2] was 7.31 µM [rising, partial curve]. The AC50 under setting [1] was 9.2 µM [rising, partial curve].
For `CS(=O)(=O)N1CCCC(C(=O)Nc2c(F)cccc2F)C1` (configuration not stated), the cell number change came out at 18.5%. Further, the AC50 under setting [1] was 0.58 µM [rising, single point].
Turning to `CCn1nc(C(=O)NCc2nnc3ccccn23)c2ccccc2c1=O`, the cell number change stood at 10.4%.
As to `COc1cccc(NC(=O)CN(C)C(=O)/C=C/c2cn(-c3ccccc3)nc2-c2ccc(C)cc2)c1`, the cell number change turned out to be 29.2%. In addition, under setting [2], the AC50 was 0.411 µM [rising, full curve, poor fit]. Further, the concentration at half-maximal activity (AC50) under setting [1] was 1.03 µM [rising, partial curve].
As for `S=C(NCc1ccc2c(c1)OCO2)NCc1ccco1`, the cell number change is -34.8%.
As for `CNC(=O)C1Cc2ccccc2CN1S(=O)(=O)c1cccs1` (configuration not stated), the cell number change is -6.6%. Also, the AC50 under setting [1] was 5.17 µM [falling, full curve].
In the case of `CN(C(=O)c1ccc(NC(=O)Cc2cccc(NC(=O)C3CCN(C(=O)C4CCCCC4)CC3)c2)cc1)C1CCCC1`, the cell number change was -0.368%. Further, under setting [1], the AC50 is 0.731 µM [rising, single point].
For the compound `O=C(CSc1nnc2ccccn12)Nc1nsc(-c2ccccc2)n1`, the cell number change is 7.62%.
For `O=C(Nc1ccccc1N1CCOCC1)c1ccc2ccccc2n1`, the cell number change was 20.2%. Further, under setting [2], the AC50 is 0.013 µM [rising, full curve, poor fit]. In addition, under setting [1], the AC50 was 0.461 µM [rising, partial curve].
In the case of `CC1CC(C)(C)NC(=S)N1CCCC(=O)Nc1ccc(F)cc1` (configuration not stated), the cell number change was -67.2%. The AC50 under setting [2] was 36.6 µM [falling, partial curve, poor fit].
With `Cc1cccc(N2CCN(C(=O)CNC(=O)C3CCCCC3)CC2)c1C`, the cell number change is 90.4%. Under setting [2], the AC50 is 13 µM [rising, partial curve].
Regarding `COc1ccccc1/C=C/C(=C1/C(=O)N(c2ccccc2)N=C1C)c1ccc(C)cc1`, the cell number change was -2.1%. Further, the AC50 under setting [2] is 6.51 µM [falling, single point].
Turning to `CCn1c(SCCC#N)nnc1-c1ccncc1`, the cell number change is 12.6%.
For `CCNc1nc(NCC)n2c(SCC(=O)Nc3ccc(Br)cc3F)nnc2n1`, the cell number change was 35.7%. In addition, under setting [2], the AC50 was 23.1 µM [rising, single point].
As to `O=S(=O)(Nc1ccc2c(c1)OCCO2)c1c(F)cccc1F`, the cell number change amounted to 5.04%. In addition, the half-maximal activity concentration (AC50) under setting [1] is 29.1 µM [rising, single point].
For the compound `COc1cc(OC)c(OC)cc1CN1CCN(Cc2cccc(F)c2)CC1`, the cell number change amounted to 18.2%.
Turning to `Cc1ccccc1C(=O)Nc1nnc(-c2ccncc2)o1`, the cell number change is -8.62%. Further, under setting [1], the AC50 was 23.1 µM [falling, single point].
Take `Cc1cc(=O)n2[nH]c(SCc3ccccc3)nc2n1`: the cell number change is -12%. In addition, the AC50 under setting [2] is 6.51 µM [falling, single point]. The AC50 under setting [1] was 0.0517 µM [falling, full curve, poor fit].
For `O=C1C2CCCCN2C(=O)N1CCCCN1CCN(c2ccccc2Oc2ccccc2)CC1` (configuration not stated), the cell number change was -20.4%. Further, the AC50 under setting [1] was 5.8 µM [falling, partial curve].
On to `COc1ccc(-c2cc(C(F)(F)F)n3ncc(C(=O)NCC4CCCO4)c3n2)cc1` (configuration not stated), for which the cell number change was determined as 182%. Moreover, the AC50 under setting [2] is 29.1 µM [rising, single point]. The AC50 under setting [1] was 29.1 µM [rising, single point].
Consider `Cc1c(C(=O)NC2=NCCS2)oc2ccccc12`, for which, under setting [2], the AC50 is 1.84 µM [rising, partial curve].
Take `Fc1ccc(CN2CCCCCCC2)cc1F`: the cell number change was -49.5%. Moreover, the AC50 under setting [2] is 0.92 µM [falling, full curve, poor fit]. Under setting [1], the AC50 was 25.9 µM [falling, partial curve].
Turning to `Cc1ccc(C)c(NC(=O)CSc2nnc(-c3ccccc3)n2N)c1`, the cell number change amounted to 4.4%. Under setting [1], the AC50 is 29.1 µM [rising, partial curve].
For `Cc1cc(SCC(=O)OC(C)C(=O)N(C)c2ccccc2)nc2ccccc12` (configuration not stated), the cell number change was determined as 22.6%.
Take `Cc1ccc(C2(C)NC(=O)N(CC(=O)NNC(=O)c3cc(C)oc3C)C2=O)cc1` (configuration not stated): the cell number change was 4.47%.
In the case of `S=C(NCC1CCCO1)NC1CCCC1` (configuration not stated), the AC50 under setting [1] is 2.59 µM [falling, partial curve, poor fit].
In the case of `COCCCN1C(=O)c2[nH]nc(-c3ccccc3O)c2C1c1cccc(Cl)c1` (configuration not stated), the cell number change is -41.7%. For the same compound, the AC50 under setting [2] is 25.9 µM [falling, partial curve]. Besides, the AC50 under setting [1] is 32.6 µM [falling, single point].
As for `COCC(=O)N1CCC(Oc2ccc(C(=O)NC3CCOC(C)(C)C3)cc2)CC1` (configuration not stated), the cell number change was -2.97%. Also, under setting [1], the AC50 was 8.2 µM [rising, partial curve].
In the case of `CCOC(=O)c1ccc(N=Nc2c(C)c(C#N)c(O)[nH]c2=O)cc1`, the cell number change was 51.3%. The AC50 under setting [2] was 23.1 µM [rising, single point].
On to `COc1ccc(NC(=O)c2ccc(OC)c(S(=O)(=O)N3CCCCC3C)c2)cn1` (configuration not stated), for which the cell number change is -15.2%.
For the compound `COc1ccccc1-c1nnc(SCc2nc3ccccc3[nH]2)n1C`, the cell number change was -29.5%. For the same compound, under setting [1], the AC50 was 10.3 µM [falling, single point].
Consider `C/C=C/c1ccc(OCCCCOc2c(OC)cccc2OC)c(OC)c1`, for which the cell number change was found to be 6.94%. Besides, the AC50 under setting [1] was 4.61 µM [falling, full curve, poor fit].
`CN(C)c1ccc(C(=O)Nc2ccc(S(=O)(=O)Nc3nccs3)cc2)cc1`: the cell number change turned out to be 121%. Under setting [2], the AC50 is 25.9 µM [rising, single point].
Take `O=[N+]([O-])c1cccc(/C=C/c2nc3ccc([N+](=O)[O-])cc3[nH]2)c1`: the cell number change turned out to be 11%.
As to `Cc1ccccc1NS(=O)(=O)c1cc(C(=O)N2CCCC2)ccc1C`, the concentration at half-maximal activity (AC50) under setting [2] is 2.31 µM [rising, partial curve] and the AC50 under setting [1] is 2.06 µM [rising, partial curve].
Regarding `CCN1C(=O)CSC1=Nc1ccccc1Cl`, under setting [1], the half-maximal activity concentration (AC50) was 6.51 µM [rising, single point].
Regarding `CCOC(=O)N1CCN(C(=O)/C=C/c2ccc(C(C)(C)C)cc2)CC1`, the cell number change was -30.4%. The AC50 under setting [2] is 29.1 µM [falling, single point]. For the same compound, under setting [1], the AC50 is 6.51 µM [rising, single point].
On to `N=c1n(Cc2ccccc2)c2ccccc2n1CC(O)COc1ccc(Cl)cc1Cl` (configuration not stated), for which the cell number change was -63.1%. The AC50 under setting [2] is 16.4 µM [falling, partial curve]. Besides, the AC50 under setting [1] is 10.3 µM [falling, partial curve].
`Clc1ccc(-c2nc(-c3ccccn3)no2)cc1Cl`: the cell number change worked out at 5.74%.
In the case of `CC(C)N(C(=O)NC(=O)Nc1ccccn1)S(C)(=O)=O`, the cell number change is -39.7%. Also, the AC50 under setting [2] is 0.184 µM [falling, full curve, poor fit].
Take `O=C(c1ccccc1)N1CCN(c2ncccn2)CC1`: the AC50 under setting [1] is 23.1 µM [falling, single point].
As for `CC(NC(=O)Cc1ccccc1)C(c1ccccc1)N1CCOCC1` (configuration not stated), the AC50 under setting [1] is 0.58 µM [falling, single point].
`Cc1cn(-c2ccc(Br)cc2)[nH]c1=O`: the cell number change is -24.7%. For the same compound, the AC50 under setting [2] is 0.00517 µM [falling, full curve, poor fit]. In addition, the AC50 under setting [1] was 2.06 µM [falling, partial curve].
As for `Cc1cccc(N2CCN(C(=O)c3cc(S(=O)(=O)N4CCOCC4)cn3C)CC2C)c1` (configuration not stated), the cell number change was -15.8%.
On to `CC(C)(C)C1CCc2nc(NC(=O)Cc3cn4ccsc4n3)sc2C1` (configuration not stated), for which the cell number change was -27.7%.
Take `CC(=O)c1ccc(N2CCN(C(=S)NCCCN(C)C)CC2)cc1`: the cell number change was -61.3%. Besides, under setting [2], the AC50 is 23.1 µM [falling, single point]. Further, the AC50 under setting [1] is 16.4 µM [falling, partial curve, poor fit].
Turning to `CN(C)c1ccc(/C=N/NC(=O)Cn2nnc3ccccc32)cc1`, the cell number change stood at 32.7%. The AC50 under setting [2] was 4.61 µM [rising, partial curve].
As to `CCOc1ccc2nc(N/C(N)=N/C(=S)Nc3ccc(C)c(C)c3)nc(C)c2c1`, the cell number change was found to be 28.8%. In addition, the AC50 under setting [1] is 0.0731 µM [rising, full curve].
As to `Cc1c(Cl)cnc(NC(=O)CSc2nnc3ccccn23)c1Cl`, the cell number change was determined as 2.16%. The AC50 under setting [1] was 6.51 µM [falling, single point].
As for `CC(=O)N1CCN(C(=O)c2ccc(S(=O)(=O)Nc3ccccc3Cl)cc2)CC1`, the cell number change stood at 36.6%. The AC50 under setting [2] is 9.2 µM [rising, partial curve].
Consider `O=C(O)c1oc2ccccc2c1CSc1ccc(Cl)cc1`, for which the cell number change was 0.794%. For the same compound, the AC50 under setting [1] is 29.1 µM [rising, single point].
As for `CN(C)c1nc(NN)nc(Nc2ccc(F)cc2)n1`, the cell number change is 13.5%. Also, the AC50 under setting [1] was 29.1 µM [rising, single point].
As for `COc1ccc(/C=N/NC(=O)C(C)n2nnc3ccccc32)cc1OC` (configuration not stated), the cell number change is -7.92%.
With `Cc1ccc(O)c(-c2[nH]ncc2C(=O)c2ccc(Br)cc2)c1`, the cell number change was -53.3%. For the same compound, the AC50 under setting [2] was 14.6 µM [falling, single point].
As for `O=C(NNS(=O)(=O)c1ccc([N+](=O)[O-])cc1)c1ccncc1`, the cell number change is 42%. Moreover, the AC50 under setting [2] is 10.3 µM [rising, partial curve, poor fit].
On to `CN(C)/C=C/C1=CC(=O)CC(C)(C)C1`, for which the cell number change is -3.13%.
Take `COc1ccccc1N1CC(C(=O)Nc2nnc(SCc3cccnc3)s2)CC1=O` (configuration not stated): the cell number change was -1.16%.
On to `Cc1ccc(NC(=O)CC2SC(=Nc3ccc(O)cc3)NC2=O)cc1` (configuration not stated), for which the cell number change was -0.361%. The AC50 under setting [1] is 0.291 µM [falling, partial curve, poor fit].
As to `CC(C)Cc1nn2c(=O)cc(COc3ccc(NC(=O)c4ccco4)cc3)nc2s1`, the cell number change worked out at 16.8%. The AC50 under setting [1] is 0.411 µM [rising, full curve].
As to `COc1ccc(C(=O)Nc2nnc(CCS(=O)(=O)c3ccc(C)cc3)s2)cc1`, the AC50 under setting [2] was 2.91 µM [rising, single point].
In the case of `CCOC(=O)CSc1nc2c(c(=O)n1-c1ccc(OCC)cc1)SCC2`, the cell number change is -227%. In addition, the AC50 under setting [2] is 29.1 µM [falling, partial curve]. The AC50 under setting [1] is 20.6 µM [falling, partial curve].
